From paper PMC3796484
Results are given in words; binding and its absence hold for the method and conditions named. In cells and extracts the contact can be indirect. Binding can be weak; no strength is given.

The chains behind the UniProt entries cited, without tags or fusion partners. Where a name states a change or a piece, a line headed by the entry shows the natural chain unless it says otherwise.
UniProt Q9NS37: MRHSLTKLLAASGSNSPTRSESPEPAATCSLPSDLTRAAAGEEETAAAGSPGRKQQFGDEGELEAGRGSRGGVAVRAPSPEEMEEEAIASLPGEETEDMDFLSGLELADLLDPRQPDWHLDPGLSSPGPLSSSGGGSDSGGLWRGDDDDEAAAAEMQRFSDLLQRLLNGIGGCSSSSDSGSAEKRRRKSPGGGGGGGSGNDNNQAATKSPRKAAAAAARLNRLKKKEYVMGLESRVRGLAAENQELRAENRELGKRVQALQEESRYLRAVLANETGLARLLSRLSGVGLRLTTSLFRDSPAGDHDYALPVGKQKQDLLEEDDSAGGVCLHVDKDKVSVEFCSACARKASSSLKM

Target: Zhangfei, tagged at its amino terminus with a FLAG epitope (UniProt Q9NS37)
Assay: co-IP; Vero cells transfected with Xbp1s and FLAG-Zhangfei (or ZF(L/A)), 5 uM MG132 for 24 h; lysis in 50 mM Tris pH 7.5, 150 mM NaCl, 1 mM EDTA, 0.1% Triton X-100; mouse anti-FLAG and protein A/G agarose at 4 C; blots with rabbit anti-Xbp1 or anti-ZF

B1: spliced X-box binding protein (Xbp1s) (protein, UniProt P17861-2 1-376)
chain: MVVVAAAPNPADGTPKVLLLSGQPASAAGAPAGQALPLMVPAQRGASPEAASGGLPQARKRQRLTHLSPEEKALRRKLKNRVAAQTARDRKKARMSELEQQVVDLEEENQKLLLENQLLREKTHGLVVENQELRQRLGMDALVAEEEAEAKGNEVRPVAGSAESAAGAGPVVTPPEHLPMDSGGIDSSDSESDILLGILDNLDPVMFFKCPSPEPASLEELPEVYPEGPSSLPASLSLSVGTSSAKLEAINELIRFDHIYTKPLVLEIPSETESQANVVVKIEEAPLSPSENDHPEFIVSVKEEPVEDDLVPELGISNLLSSSHCPKPSSCLLDAYSDCGYGGSLSPFSDMSSLLGVNHSWEDTFANELFPQLISV
- binding: binds
